Results: article PMC8120823

Target: T1, 6His-SCO4804 (Streptomyces coelicolor) (UniProt Q9KY60)
T1 sequence (looked up): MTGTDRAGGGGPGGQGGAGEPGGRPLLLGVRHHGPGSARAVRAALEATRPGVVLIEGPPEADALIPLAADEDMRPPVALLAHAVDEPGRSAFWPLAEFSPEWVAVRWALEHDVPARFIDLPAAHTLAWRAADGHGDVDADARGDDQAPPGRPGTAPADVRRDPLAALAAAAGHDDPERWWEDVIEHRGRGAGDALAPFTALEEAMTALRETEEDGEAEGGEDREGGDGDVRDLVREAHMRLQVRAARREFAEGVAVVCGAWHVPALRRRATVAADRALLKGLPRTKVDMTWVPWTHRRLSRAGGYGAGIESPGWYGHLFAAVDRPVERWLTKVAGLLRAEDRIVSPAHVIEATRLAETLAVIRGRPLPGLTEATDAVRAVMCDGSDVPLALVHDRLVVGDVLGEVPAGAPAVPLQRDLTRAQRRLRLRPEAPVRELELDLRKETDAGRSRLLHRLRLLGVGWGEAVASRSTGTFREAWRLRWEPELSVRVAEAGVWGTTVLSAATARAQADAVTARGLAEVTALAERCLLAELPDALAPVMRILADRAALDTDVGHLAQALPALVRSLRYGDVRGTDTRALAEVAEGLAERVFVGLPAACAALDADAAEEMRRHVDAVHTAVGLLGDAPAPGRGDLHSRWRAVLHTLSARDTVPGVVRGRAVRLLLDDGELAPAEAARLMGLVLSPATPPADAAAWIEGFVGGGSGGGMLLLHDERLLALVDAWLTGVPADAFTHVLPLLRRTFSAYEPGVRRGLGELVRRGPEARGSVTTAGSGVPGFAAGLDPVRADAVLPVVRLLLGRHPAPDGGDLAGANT
Experiment: EMSA
Conditions: no competitor, bound at 1 uM protein, non-specific; PBS, 5 mg/ml BSA, 5% glycerol, optional 2 ng/ul poly(dI-dC), 30 ng DNA, protein up to 2 uM, 30 min at 25 C; 5% PAGE in 0.25x TBE at 4 C; pH not stated; recombinant protein; residues 1-815; protein details: 6His (pET28a, NdeI/EcoRI, N-terminal His/thrombin); label: none (ethidium bromide stain); probe letters rebuilt from the primers and the …

Sequence	binding result
GCGGATCCGATCTTCGCGGGAGTGGTGTTCGCCCTGTTCGGGGCCGGTCTGCTGGTGTGGACCACGACGCGGGTGCGGCACGGCCGGCCCGTCGCGCTCGGTGTGAGCCCCGTCGCATCGGCGACCGTCGCGAGCGTCGCCGCCGTGGTCGCGCTGGGCCTCGGGGCCTGGTGCCTGACCCAGGTGTGAGGAGCGGTTGCGCACCCCGGCCGGGGCGCCGCCCGAGTAACCGGGGGATCGCACTCCGGATACCCGTGTCGGAGCGGGTCAGCACTCCGGGCGGCAGGAACGGGGTTCGTCGGGTTACCGTTCGAGTGGCCGTTGCGGGCTTTTCCCGTTTGACACGGGGGCGGGAGGTACCGTCACACTCCGCAGCGTCACGATCGAAACACAGAACGACCCGACCCCGGGACCACGGCCTGGGGAGGCCCAGCGTCGACCGGAGAGAAGAGCGCATATGCG (double strand) [topA promoter fragment]	binds
GTAATGCCGGCGTAGGGAGTAGGTCTCATGACCATCAAGGACGCACGCACGCCTGCCTCCACGCAGAACACCGCCCAGGCGGACACCGCGGAGAACACGGACACCGCGGAGGACACCGAGGCCGGGAAGTCCATCGGCTGGCACAAGGCGTACGTCGAGGGCTCGCGCCCCGATCTGCGGGTGCCGGTCCGTCAGGTGCACCTCACCAACGGGCAGTCGGTCACGCTCTACGACACCTCGGGCCCGTACACCGATCCGCTCGTCGACACCGATGTCCGCAGGGGCCTCGCACCGCTGCGGGAGAACTGGATCATCGCCCGCGGAGACACCGAGGAGTACGCGGGCCGCCCCGTCCGGCCCGAGGACGACGGAATCAAGCACACCTCGCCGCGCGGCGGCCTGCGCAACCTCGACGCCGTCTTCCCCGGCCGCCCGCGCCAGCCTCGCCGGGGCCGGGACGGCAACGCGGTCACGCAGCTCGCCTACGCGCGACGGGGCGAGATCACCCCGGAGATGGAGTACGTGGCCGTCCGGGAGAACGTCTCCCCGGAGGTGGTCCGCGAGGAGATCGCCGCGGGACGTGCCGTGCTGCCCGCCAACATCAACCACCCCGAGATCGAGCCGATGATCATCGGCAAGCGGTTCCTGGTGAAG (double strand) [negative control 2, sco3928 fragment]	binds
GGCATATGCGATACCCCCGTCGGCTCACACCTCGTATCAGCAACACCCGTACGCGTACGTGAACTTACAAGGCGCGGTCGCCCGGCGAAAGACGGCTCCGACGCGCGGGGTGATCGTGTGGAGAACGGGGATTCAGCGTCTGCGCACCGCCTTCCAGGCGTCGGTCACCGCGTAGGAGAAGGTCAGCCGCCAGGCGTCCAGTTTGTTCCGCACCGTTGAGACCACTCTCCAGCACTTCAGCCACGTCGGCAGGCGTCGGAACGGTACGAAGGTGAGGGTGTCGCCGATGGCGTTCACCGCGATGCTCCTGCGGCCCGGTCCCTCTGCCCGCAGTGCGGCGTATAGTTCCGGCGTCAATGCGCGGTTGAGGCGGGCCGCGGTGCCTGCCGCGGTGAAGGCGAATCCTCGGATCCGG (double strand)	binds

Protein sequences can lack the tags named with them.
